Values are relative to the signal before dosing, not to a vehicle control; the signal also falls without drug.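 Labels refer to human fibroblasts, largely primary: uterine (C12385, HUF), lung (H6013), bone (Hs27A), adrenal (HADF), skin (WS1), plus mammary HMF and breast cancer-associated Hs343T. Cancer lines are basal-like or mesenchymal-like triple-negative breast cancer. The paper counts as hits responses shifting over 3x the replicate standard deviation. The tissue of the other fibroblasts is not given here.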
Test system: MDAMB436
Experiment: relative JC-1 red fluorescence (viability) vs pre-drug, coculture with fibroblast (fraction); higher = more viable cancer cells
Experimental: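 JC-1 labelled TNBC cells cocultured 1:1 (1,500 cells each) with CellTrace Violet stained primary or stromal fibroblasts in 384-well plates in FluoroBrite medium, treated with one of 42 anticancer drugs at 0.1, 1, 10 or 100 uM. JC-1 red fluorescence (mitochondrial integrity in cancer cells only) was read by plate reader every 8 h for 72 h. Values are normalised to each well's pre-drug value. The stock of one drug was tenfold lower, so its dose labels may be too high.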

CC(C)C[C@H](NC(=O)[C@H](Cc1ccccc1)NC(=O)c1cnccn1)B(O)O [Bortezomib]
relative JC-1 red fluorescence
Details	8 h	16 h	24 h	32 h	40 h	48 h	56 h	64 h	72 h
0.1 µM, coculture fibroblast: C12385	0.827	0.8087	0.8445	0.806	0.805	0.834	0.8726	0.911	0.9498
0.1 µM, coculture fibroblast: H6013	0.871	0.889	0.934	0.815	0.848	0.844	0.798	0.858	0.781
0.1 µM, coculture fibroblast: H6019	0.776	0.735	0.764	0.755	0.781	0.841	0.892	0.8557	0.847
0.1 µM, coculture fibroblast: H6076	0.76	0.735	0.78	0.793	0.887	0.942	0.822	0.816	0.877
0.1 µM, coculture fibroblast: H6231	0.7539	0.747	0.851	0.803	0.862	0.728	0.776	0.795	0.858
0.1 µM, coculture fibroblast: HADF	0.814	0.794	0.787	0.768	0.778	0.832	0.792	0.807	0.796
0.1 µM, coculture fibroblast: HCFa	0.823	0.811	0.831	0.842	0.769	0.826	0.885	0.82	0.8378
0.1 µM, coculture fibroblast: HCPF	0.7447	0.7438	0.808	0.7913	0.849	0.864	0.929	0.95	0.865
0.1 µM, coculture fibroblast: HHSteC	0.84	0.858	0.871	0.859	0.905	0.792	0.817	0.825	0.844
0.1 µM, coculture fibroblast: HMF	0.7423	0.732	0.7661	0.7506	0.815	0.833	0.838	0.8	0.913
0.1 µM, coculture fibroblast: HPFa	0.8931	0.917	0.924	0.933	0.98879	0.878	0.841	0.796	0.842
0.1 µM, coculture fibroblast: HUF	0.8547	0.7907	0.7861	0.735	0.718	0.74	0.751	0.771	0.784
0.1 µM, coculture fibroblast: Hs5	0.752	0.764	0.81	0.797	0.858	0.866	0.803	0.885	0.936
0.1 µM, coculture fibroblast: Hs27A	0.809	0.803	0.84	0.882	0.924	0.8	0.931	0.847	0.913
0.1 µM, coculture fibroblast: Hs343T	0.754	0.735	0.767	0.751	0.801	0.826	0.902	0.86	0.891
0.1 µM, coculture fibroblast: WS1	0.803	0.749	0.767	0.712	0.72	0.745	0.785	0.822	0.857
1 µM, coculture fibroblast: C12385	0.811	0.7253	0.667	0.587	0.538	0.51	0.505	0.5	0.511
1 µM, coculture fibroblast: H6013	0.8575	0.813	0.794	0.823	0.845	0.902	0.919	0.933	0.918
1 µM, coculture fibroblast: H6019	0.7638	0.699	0.732	0.724	0.726	0.756	0.779	0.797	0.8
1 µM, coculture fibroblast: H6076	0.829	0.767	0.824	0.827	0.7107	0.839	0.8	0.827	0.846
1 µM, coculture fibroblast: H6231	0.799	0.736	0.722	0.663	0.663	0.654	0.657	0.642	0.638
1 µM, coculture fibroblast: HADF	0.788	0.724	0.678	0.648	0.632	0.641	0.605	0.604	0.572
1 µM, coculture fibroblast: HCFa	0.827	0.779	0.777	0.798	0.828	0.748	0.847	0.861	0.799
1 µM, coculture fibroblast: HCPF	0.8	0.746	0.733	0.7	0.701	0.6827	0.683	0.675	0.664
1 µM, coculture fibroblast: HHSteC	0.851	0.787	0.7772	0.7481	0.733	0.744	0.697	0.686	0.643
1 µM, coculture fibroblast: HMF	0.781	0.6928	0.671	0.644	0.652	0.631	0.651	0.648	0.655
1 µM, coculture fibroblast: HPFa	0.865	0.785	0.768	0.752	0.76	0.805	0.756	0.761	0.72
1 µM, coculture fibroblast: HUF	0.8323	0.7252	0.691	0.62	0.575	0.544	0.531	0.521	0.519
1 µM, coculture fibroblast: Hs5	0.809	0.7385	0.734	0.688	0.673	0.634	0.661	0.6448	0.6546
1 µM, coculture fibroblast: Hs27A	0.7982	0.7437	0.715	0.731	0.719	0.713	0.684	0.667	0.602
1 µM, coculture fibroblast: Hs343T	0.767	0.679	0.668	0.645	0.641	0.6314	0.637	0.643	0.654
1 µM, coculture fibroblast: WS1	0.81	0.698	0.645	0.569	0.529	0.506	0.493	0.484	0.497
10 µM, coculture fibroblast: C12385	0.7944	0.764	0.753	0.66	0.616	0.594	0.571	0.552	0.548
10 µM, coculture fibroblast: H6013	0.823	0.8103	0.805	0.8146	0.8253	0.878	0.867	0.878	0.854
10 µM, coculture fibroblast: H6019	0.762	0.736	0.779	0.768	0.78	0.806	0.815	0.84	0.853
10 µM, coculture fibroblast: H6076	0.65	0.6	0.615	0.609	0.638	0.647	0.703	0.708	0.729
10 µM, coculture fibroblast: H6231	0.769	0.608	0.67	0.596	0.597	0.57	0.571	0.559	0.555
10 µM, coculture fibroblast: HADF	0.777	0.734	0.694	0.648	0.632	0.656	0.602	0.596	0.558
10 µM, coculture fibroblast: HCFa	0.803	0.768	0.751	0.7214	0.7192	0.7474	0.7004	0.69644	0.64
10 µM, coculture fibroblast: HCPF	0.669	0.629	0.639	0.5864	0.573	0.539	0.533	0.522	0.52
10 µM, coculture fibroblast: HHSteC	0.7905	0.7782	0.77	0.737	0.737	0.77	0.72	0.722	0.678
10 µM, coculture fibroblast: HMF	0.668	0.634	0.61	0.569	0.553	0.526	0.539	0.522	0.53
10 µM, coculture fibroblast: HPFa	0.955	0.872	0.828	0.785	0.773	0.79	0.729	0.732	0.689
10 µM, coculture fibroblast: HUF	0.829	0.737	0.7038	0.6437	0.5934	0.576	0.5648	0.558	0.557
10 µM, coculture fibroblast: Hs5	0.761	0.6851	0.6486	0.581	0.553	0.511	0.519	0.492	0.492
10 µM, coculture fibroblast: Hs27A	0.845	0.7969	0.814	0.813	0.805	0.876	0.802	0.794	0.723
10 µM, coculture fibroblast: Hs343T	0.671	0.638	0.633	0.6	0.606	0.587	0.6	0.599	0.614
10 µM, coculture fibroblast: WS1	0.77851	0.742	0.718	0.646	0.614	0.583	0.569	0.548	0.537
100 µM, coculture fibroblast: C12385	0.8382	0.737	0.676	0.576	0.5084	0.481	0.4599	0.436	0.429
100 µM, coculture fibroblast: H6013	0.889	0.813	0.756	0.7354	0.7277	0.7536	0.738	0.732	0.706
100 µM, coculture fibroblast: H6019	0.8187	0.745	0.766	0.714	0.714	0.7266	0.7184	0.732	0.7326
100 µM, coculture fibroblast: H6076	0.813	0.709	0.605	0.555	0.559	0.544	0.552	0.558	0.561
100 µM, coculture fibroblast: H6231	0.795	0.7	0.572	0.578	0.545	0.508	0.497	0.458	0.443
100 µM, coculture fibroblast: HADF	0.8684	0.802	0.746	0.715	0.704	0.722	0.684	0.68	0.633
100 µM, coculture fibroblast: HCFa	0.8497	0.746	0.697	0.664	0.652	0.66	0.616	0.607	0.553
100 µM, coculture fibroblast: HCPF	0.846	0.752	0.671	0.575	0.525	0.484	0.448	0.4297	0.4
100 µM, coculture fibroblast: HHSteC	0.881	0.804	0.786	0.748	0.74	0.76	0.711	0.699	0.65
100 µM, coculture fibroblast: HMF	0.821	0.729	0.643	0.552	0.53	0.503	0.498	0.487	0.479
100 µM, coculture fibroblast: HPFa	0.9348	0.833	0.7955	0.7661	0.7741	0.8107	0.7461	0.7364	0.694
100 µM, coculture fibroblast: HUF	0.876	0.749	0.724	0.651	0.599	0.568	0.547	0.53	0.525
100 µM, coculture fibroblast: Hs5	0.829	0.751	0.657	0.59	0.568	0.522	0.53	0.502	0.48
100 µM, coculture fibroblast: Hs27A	0.862	0.801	0.766	0.731	0.721	0.745	0.703	0.691	0.617
100 µM, coculture fibroblast: Hs343T	0.844	0.763	0.645	0.592	0.563	0.533	0.518	0.508	0.504
100 µM, coculture fibroblast: WS1	0.822	0.696	0.6247	0.526	0.48	0.451	0.428	0.404	0.391

From the supplement of paper PMC6078165
